The list shows a part of the results.

Amino acid sequences for entries named in this document (tags omitted).
UniProt Q0JBA9, entry or part of it: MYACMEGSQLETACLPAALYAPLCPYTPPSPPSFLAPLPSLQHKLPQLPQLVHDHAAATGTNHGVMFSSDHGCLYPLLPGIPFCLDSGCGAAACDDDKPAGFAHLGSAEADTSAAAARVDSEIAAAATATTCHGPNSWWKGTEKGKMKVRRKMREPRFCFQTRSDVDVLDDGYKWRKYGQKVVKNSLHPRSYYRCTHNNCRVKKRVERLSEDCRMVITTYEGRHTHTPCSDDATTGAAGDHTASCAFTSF

This passage reports binding signal results from article PMC7819943, “Rice protein-binding microarrays: a tool to detect cis-acting elements near promoter regions in rice”.

The target of the test is OsWRKY34 (Oryza sativa, UniProt Q0JBA9 1-250). As to the kind of experiment: protein-binding microarray (RPBM); PBS, 2% BSA, 51.3 ng/ul salmon testes DNA, 50 uM zinc acetate, 200 nM TF, 25 C, 1 h; high values mean tight binding. To be noted: protein: recombinant; tags: N-terminal polyhistidine and DsRed monomer fusion (pET32a); label: CyDye5-dUTP incorporated in the synthesized complementary strand; 3' TTTTT single-stranded linker to array surface; dsDNA, one strand shown. The method in brief: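 Binding signal is reported as fluorescence intensity per feature (arbitrary units) from an Axon 4000B scanner. Incubation used 200 nM of each Ni–NTA-purified, N-terminally polyhistidine- and DsRed-fused transcription factor from E. coli BL21-CodonPlus on a double-stranded custom Agilent array for 1 h at 25 °C, with 50 µM zinc acetate in the buffer, followed by washing.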
In the case of “AGTTTTTGGTAGTTTAGTTTGATACACCACTTCGTTTGATCGGAGTCACCTAGTGCAG”, the binding signal is 18600 fluorescence intensity (a.u.).

Take “AGCATTTACGCGTGGTCTCTGAAGTATATAACGGTCTGTCCGGAGTCACCTAGTGCAG”: the binding signal is 8140 fluorescence intensity (a.u.).

For “ATCACAGGCAAAATCAACGATGAACTTGGAAGGGTAGGGTCGGAGTCACCTAGTGCAG”, the binding signal is 8360 fluorescence intensity (a.u.).

In the case of “GCTCTACAATACTCCCTTTGTTCCAAAATACCTTTTGTTCCGGAGTCACCTAGTGCAG”, the binding signal is 11000 fluorescence intensity (a.u.).

“GTCCCATTTCGGTATTCAACTATTTCTATTTTCTCCTCTCCGGAGTCACCTAGTGCAG”: the binding signal is 9860 fluorescence intensity (a.u.).

Take “ATAATCCTTGTCTTTTTGTTTGCTTGATGTCGTATCGTGTCGGAGTCACCTAGTGCAG”: the binding signal is 9360 fluorescence intensity (a.u.).

For the sequence “CAGTGGGATCAGACGTAGACGCGTGGTGTGGTTGTATTTTCGGAGTCACCTAGTGCAG”, the binding signal was 13600 fluorescence intensity (a.u.).

For the sequence “ACCTTGACGCCTTGTTATGTGTAGTCTTATTAATATACTACGGAGTCACCTAGTGCAG”, the binding signal was 8680 fluorescence intensity (a.u.).

“GCCCGCTGTTTTTCTCTCTCCTTATTTAACTTCTTAAAATCGGAGTCACCTAGTGCAG”: the binding signal is 9470 fluorescence intensity (a.u.).

In the case of “CGTATCCTTTTTGCTTTTCATAAAGTTCACCTTCTTTTCCCGGAGTCACCTAGTGCAG”, the binding signal is 12100 fluorescence intensity (a.u.).

As for “GTGCATGTGTAGGGAGGGCACAATGGAGGGGTGTTTTTTTCGGAGTCACCTAGTGCAG”, the binding signal was 15000 fluorescence intensity (a.u.).

Consider “TGTACACCTCTCCCACACTCCTTGCTCTCTCGTTTGCTCTCGGAGTCACCTAGTGCAG”, for which the binding signal was 8090 fluorescence intensity (a.u.).

For “GGGGTGAGGTGGGAGGGCGGCGCCGCGATGGCCACCGGCGCGGAGTCACCTAGTGCAG”, the binding signal was 8440 fluorescence intensity (a.u.).

“CCTGCCGCGATCATGCCACACGACCACCTGCAGTCGTCCTCGGAGTCACCTAGTGCAG”: the binding signal was 8250 fluorescence intensity (a.u.).

As to “CCTCACCGCCGTCTCACCGCAGTTGCCACCCTCACCTTTGCGGAGTCACCTAGTGCAG”, the binding signal is 8370 fluorescence intensity (a.u.).

In the case of “TAAATTATTTTCTATTTATAAATATGTCGTTTGCCTTATTCGGAGTCACCTAGTGCAG”, the binding signal was 8080 fluorescence intensity (a.u.).

As to “TCCAACCGCAATATCCGTTCCGCTGCGGTGCGTTGCCACTCGGAGTCACCTAGTGCAG”, the binding signal was 9030 fluorescence intensity (a.u.).

“CTTTGCCTTGATTGGATCAGCTAGTCCTTCGTTTGAGTCCCGGAGTCACCTAGTGCAG”: the binding signal is 8510 fluorescence intensity (a.u.).

Take “TAGCTGCTGCTGCTGTTGTACCCTGAGGTTCTAGTTTACACGGAGTCACCTAGTGCAG”: the binding signal is 9500 fluorescence intensity (a.u.).

“CGCACGCTCTCGCATCCTCGCGTTTCATCCTCCTGTCCGTCGGAGTCACCTAGTGCAG”: the binding signal is 8820 fluorescence intensity (a.u.).

In the case of “TTGCCCACTTGTTCACGCTATTTAAAGCCTAGTAACACGCCGGAGTCACCTAGTGCAG”, the binding signal was 9400 fluorescence intensity (a.u.).

“GACCGCGAGCATGATGCAGCGCCGCGCCTGCTATACTCCACGGAGTCACCTAGTGCAG”: the binding signal was 8360 fluorescence intensity (a.u.).

Take “TCTCATCACTCTTCACCCGCCGCGCCGCGAACTCCGGAACCGGAGTCACCTAGTGCAG”: the binding signal was 8630 fluorescence intensity (a.u.).

Take “ATTCATGTCAGAATCCTGTGTTTTTCCTATTCCTCTGTTTCGGAGTCACCTAGTGCAG”: the binding signal is 9350 fluorescence intensity (a.u.).

Turning to “ATTCCAGTGTATACGCCTTCGCGCTCCATTTACGATTTCACGGAGTCACCTAGTGCAG”, the binding signal is 8300 fluorescence intensity (a.u.).

As to “AGGAGTTGACGGCGAGGGGATCGAGAGGGAGGGAGGGATGCGGAGTCACCTAGTGCAG”, the binding signal was 9050 fluorescence intensity (a.u.).

For the sequence “TCGACTAACGTTTGATCATTCATTTTATTCAAAATTTTTGCGGAGTCACCTAGTGCAG”, the binding signal was 8340 fluorescence intensity (a.u.).

As to “GGGTGGGCATGTAAGAATCTTGGCTCATGGAAGGAGAAGACGGAGTCACCTAGTGCAG”, the binding signal is 10200 fluorescence intensity (a.u.).

With “AACCACTCGCTTCCAAACAATCCAAACCTTCCATGCCATTCGGAGTCACCTAGTGCAG”, the binding signal is 64700 fluorescence intensity (a.u.).

With “TTATTCGGGGTGCATATACTAGGTTAGCTACAGTTGTCAGCGGAGTCACCTAGTGCAG”, the binding signal is 8500 fluorescence intensity (a.u.).

“GTCTTTGGAGCGCCGCACAGCAAAGAAAAATATCCAGCGTCGGAGTCACCTAGTGCAG”: the binding signal is 9260 fluorescence intensity (a.u.).

In the case of “TGTTGTGAATTTTTATTCGCTTTTTATTCGGTTATGCATTCGGAGTCACCTAGTGCAG”, the binding signal was 9450 fluorescence intensity (a.u.).

Regarding “ATTGCTGATTGTCTGTTCTTTTACTTGACATAACCTGAATCGGAGTCACCTAGTGCAG”, the binding signal was 8620 fluorescence intensity (a.u.).

Consider “TAAGTAGGAGAGGGTTGTGAATTGGGTTGATGGGAGGTGTCGGAGTCACCTAGTGCAG”, for which the binding signal was 8760 fluorescence intensity (a.u.).

For “CGTGTCGTGGAAGGTCATTATTGGTTGGGATAGCGTAGCGCGGAGTCACCTAGTGCAG”, the binding signal was 9440 fluorescence intensity (a.u.).

As for “CGCACCTACGTGATATCCTAACTTCTTCTCATTCTTATGGCGGAGTCACCTAGTGCAG”, the binding signal was 8350 fluorescence intensity (a.u.).

On to “AGTATATCATCTGCCTGGACTTCTTTAGATTGTCCTTACACGGAGTCACCTAGTGCAG”, for which the binding signal was 8240 fluorescence intensity (a.u.).

In the case of “AGATCACCCTGCCGATAGCCACTGCGATGTTCGTTCTTGTCGGAGTCACCTAGTGCAG”, the binding signal was 9750 fluorescence intensity (a.u.).

On to “TCCTCTCCCACCAATCCTTTGATCCATTCATCCCAACTTCCGGAGTCACCTAGTGCAG”, for which the binding signal is 9340 fluorescence intensity (a.u.).

As to “CGAAGCCAACTGCAGCATCACACTACCTCACCCACTACCCCGGAGTCACCTAGTGCAG”, the binding signal is 8230 fluorescence intensity (a.u.).

As to “GTAGGAAAGTTTGTTTGTGTGTGTAGAAAAGTTTTGATGTCGGAGTCACCTAGTGCAG”, the binding signal is 21000 fluorescence intensity (a.u.).

Consider “CCTTATCCACTTGATGTTACTGCTACTCGTCACCAGATGTCGGAGTCACCTAGTGCAG”, for which the binding signal is 8330 fluorescence intensity (a.u.).
